## Assay results

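A z-score from a phospho-tyrosine peptide counterscreen run alongside a FRET kinase assay of purified Hck-YEEI bound to Nef, read after timed room-temperature incubations.
Compounds were tested at a single concentration of 10 µM.
The number is a z-score for the p-Tyr peptide counterscreen; higher values mean a stronger counterscreen signal, and values above 3 mark a compound as likely interfering.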

Common to all entries: measured here: p-Tyr peptide counterscreen.
Part of the compounds only, not a random draw; the main read-out is not listed here.

* Cc1ccc2occ(C3N[C@H](C(=O)O)CS3)c(=O)c2c1 (some centres undefined) | z-score 2.236
* COc1ccc(Cn2c(N)c(C(=O)NCc3ccco3)c3nc4ccccc4nc32)cc1OC | z-score 6.086
* CCCCN(C(=O)Cn1ncc(Cl)c(Cl)c1=O)c1c(N)n(CC(C)C)c(=O)[nH]c1=O | z-score -1.592
* COc1ccc(C)cc1NC(=O)Nc1cnccn1 | z-score -0.9692
* CCOC(=O)Cc1csc(NC(=O)COc2ccc(C)c(C)c2)n1 | z-score -0.5484
* O=C1NN(c2cccc(Br)c2)C(=O)/C1=C/c1ccc(-c2cc([N+](=O)[O-])ccc2O)o1 | z-score 0.2192
* Nc1cc2nc3ccccc3nc2cc1N | z-score -1.797
* Cc1ccc(-c2cc(C(F)F)n3ncc(C(=O)NCc4ccco4)c3n2)cc1 | z-score 1.784
* CC(=O)OCC1=C(C(=O)O)N2C(=O)C(NC(=O)c3ccc(COc4c(C)cccc4Cl)o3)C2SC1 (centres undefined) | z-score -0.1685
* Cc1nc(C)c(CC(=O)N2CCc3c([nH]c4ccccc34)C2c2ccccn2)s1 (centres undefined) | z-score 0.8667
* Cc1c2c(=O)n(-c3nc4ccccc4s3)nc-2cc(O)n1Cc1ccccc1 | z-score 0.307
* CCCCC1=CC2=CC(=O)C(C)(OC(=O)CCc3ccccc3)C(=O)C2=CO1 (centres undefined) | z-score -0.6763
* CCCCN(C)CCOc1ccccc1OCC | z-score -1.589
* Cc1ccc(N=C2NC(=O)/C(=C/C=C/c3ccco3)S2)cc1 | z-score -1.365
* CC(C)(C)CC(C)(C)c1ccc(OCC(=O)N/N=C/c2ccc(S(=O)(=O)O)o2)cc1 | z-score 0.08806
* O=C(NN1C(=O)/C(=C/C=C/c2ccco2)SC1=S)c1ccccc1O | z-score -2.009
* O=C(N/N=C/c1coc2ccccc2c1=O)c1cc(O)cc(O)c1 | z-score -0.6921
* COC(=O)CCCC1=CC2=CC(=O)C(C)(OC(=O)c3cccs3)C(=O)C2=CN1Cc1ccc2c(c1)OCO2 (centres undefined) | z-score -0.1335
* CCC(=C(c1ccc(OC)cc1)c1ccc(OC)cc1)c1cn(CC(O)CN2CCN(C)CC2)c2ccccc12 (centres undefined) | z-score 1.896
* CCC(=O)Oc1ccc2c(C)cc(=O)oc2c1C | z-score 50.83
* COc1cc([N+](=O)[O-])cc(/C=N/NC(=O)C(C)Nc2ccccc2C)c1O (centres undefined) | z-score -1.629
* S=C(NCc1ccco1)Nc1ccccc1Cl | z-score -1.823
* O=c1ccc2[n+]([O-])c3ccc(O)cc3oc-2c1 | z-score -0.8686
* COc1ccc2nc(C)cc(SCC(=O)Nc3c(C)cc(C)cc3C)c2c1 | z-score -0.6313
* Cc1cccc(NC(=O)c2cc3cc([N+](=O)[O-])ccc3s2)n1 | z-score -2.215
* Cc1cc(/C=N/Nc2ccc([N+](=O)[O-])cn2)c(C)n1-c1ccc(C(=O)O)cc1 | z-score -0.04311
* COc1ccc2nc(C)cc(SCC(=O)Nc3c(C)cccc3C)c2c1 | z-score 0.9515
* O=C(N=Nc1c(O)[nH]c2ccccc12)c1ccc(CN2CCOCC2)cc1 | z-score -0.6
* CCN(CC)c1ccc(-c2nn3c(-c4ccccc4OC)nnc3s2)cc1 | z-score 8.431
* CC(C)n1cnc2cc(NCc3ccco3)ccc21 | z-score 1.614
* CCCCNC(=O)C(=O)N/N=C/c1ccc(OCC(=O)Nc2cccc(OC)c2)c(OC)c1 | z-score -1.767
* Cc1ccc(NC(=S)NC(=O)/C=C/c2ccco2)c(O)c1 | z-score -1.995
* CC(Oc1ccc(-n2cnnn2)cc1)C(=O)O (centres undefined) | z-score -1.976
* O=C(NC(=O)c1ccccc1Cl)Nc1ccc(-c2cnco2)cc1 | z-score 0.2563
* CCc1cc(-c2[nH]ncc2-c2ccc3c(c2)OCO3)c(O)cc1O | z-score -0.2206
* CCCCCCn1c(N)c(C(=O)NCCN2CCOCC2)c2nc3ccccc3nc21 | z-score 47.54
* Cc1ccc(Oc2ccc(C(F)(F)F)cc2[N+](=O)[O-])c([N+](=O)[O-])n1 | z-score 0.4178
* O=C(O)C(Cc1ccccc1)N1C(=O)/C(=C/C=C/c2ccco2)SC1=S (centres undefined) | z-score -0.2328
* CCCn1c(=NC(=O)c2ccco2)c(C(=O)OCC)cc2c(=O)n3ccccc3nc21 | z-score 38.72
* O=C(Nc1c2ccccc2nc2ccccc12)C(Cl)(Cl)Cl | z-score 42.14
* O=C1NC(=O)N(c2ccc(Cl)cc2)C(=O)/C1=C\c1ccc(Sc2nc3ccccc3[nH]2)o1 | z-score 0.3063
* Oc1ccc(Nc2ccnc3cc(Cl)ccc23)cc1 | z-score 1.682

Some entries from above, unchanged:

With O=C(Nc1c2ccccc2nc2ccccc12)C(Cl)(Cl)Cl the assay gave z-score 42.14.
With O=C(N/N=C/c1coc2ccccc2c1=O)c1cc(O)cc(O)c1 the assay gave z-score -0.6921.
With Cc1ccc(N=C2NC(=O)/C(=C/C=C/c3ccco3)S2)cc1 the assay gave z-score -1.365.
With COc1ccc(Cn2c(N)c(C(=O)NCc3ccco3)c3nc4ccccc4nc32)cc1OC the assay gave z-score 6.086.

The results are deposited in PubChem (AID463188; University of Pittsburgh Molecular Library Screening Center, 2010).